Experiment [1] has as its system three-dimensional hepatic tissue consisting only of human hepatocytes (PXB cells). As to the kind of experiment: ATP assay (CellTiter Glo 3D) viability after exposure to hepatotoxicity-inducing compounds, Test Example 6 Condition 1. The conditions noted are these: Hepatocyte, calculated from cell viability (ATP), exposure 168 hours from day 8 of culture, no bile acids, read-out: IC50 Condition 1 (present tissue). The format is cell-based. Here is the method:
The resulting mixture was centrifuged at room temperature at 400×g for 2 minutes, the supernatant was removed, and the cells were resuspended in an HCM (product number “CC-3198”, manufactured by Lonza) containing 10 U/mL thrombin (product number “R4648”, manufactured by Sigma-Aldrich) and 1 v/v % endothelial cell growth supplement (ECGS) (product number “1052”, manufactured by Sciencell) to a cell density of 1.95×10^4 cells/2 μL to obtain a cell suspension.
2 μL of an HCM containing 5 mg/mL fibrinogen and 1 v/v % ECGS was added to a 48-well microplate (product number “3830-048”, manufactured by AGC Techno Glass) to form a droplet. The cell suspension was added to the interior of each droplet, and the 48-well microplate was then left to stand in an incubator for 40 minutes to form a fibrin gel in which the human hepatocytes were embedded. 0.5 mL of HCM containing 1 v/v % ECGS was added to each well in which the fibrin gel had been formed, and the cells were cultured under the conditions of 37° C. and 5% CO2. After the start of the culture, the medium was changed every two days.

For experiment [2], the system named is spheroids consisting only of human hepatocytes (PXB cells). As to the kind of experiment: ATP assay (CellTiter Glo 3D) viability after exposure to hepatotoxicity-inducing compounds, Test Example 6 Condition 2. It is filed as cell-based. The settings on record: calculated from cell viability (ATP), hepatocyte spheroids, exposure 168 hours, no bile acids, read-out: IC50 Condition 2 (spheroid).

Take `CCCCc1oc2ccccc2c1C(=O)c1cc(I)c(OCCN(CC)CC)c(I)c1` [Amiodarone]: the IC50 in experiment [1] was 32.3 µM; in experiment [2] it was 52.2 µM.
